Source: patent US20030186363

Tests used:
[1] = tested on: T1, M.BsaIB (C5 methylase) (Bacillus stearothermophilus 6-55); test: activity in cells; settings: plasmids carrying bsaIMB resistant to BsaI digestion; protein in cells; only the site is given
T1 sequence: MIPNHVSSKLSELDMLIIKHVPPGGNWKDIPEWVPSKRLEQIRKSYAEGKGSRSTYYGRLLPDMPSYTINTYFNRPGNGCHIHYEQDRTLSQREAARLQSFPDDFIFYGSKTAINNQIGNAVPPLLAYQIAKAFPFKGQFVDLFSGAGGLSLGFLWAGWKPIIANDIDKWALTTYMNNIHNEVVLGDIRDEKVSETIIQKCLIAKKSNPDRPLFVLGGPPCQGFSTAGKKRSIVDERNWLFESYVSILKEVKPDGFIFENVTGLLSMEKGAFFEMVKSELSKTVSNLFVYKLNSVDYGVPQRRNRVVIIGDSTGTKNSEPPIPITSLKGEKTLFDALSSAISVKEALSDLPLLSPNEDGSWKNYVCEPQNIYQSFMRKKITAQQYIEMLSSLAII

[2] = tested on: T2, BsaI restriction endonuclease (recombinant) L1M (Bacillus stearothermophilus 6-55); test: enzyme reaction in vitro; settings: purification fractions assayed on lambda DNA; 10^6 units purified in total; purified recombinant protein
T2 sequence: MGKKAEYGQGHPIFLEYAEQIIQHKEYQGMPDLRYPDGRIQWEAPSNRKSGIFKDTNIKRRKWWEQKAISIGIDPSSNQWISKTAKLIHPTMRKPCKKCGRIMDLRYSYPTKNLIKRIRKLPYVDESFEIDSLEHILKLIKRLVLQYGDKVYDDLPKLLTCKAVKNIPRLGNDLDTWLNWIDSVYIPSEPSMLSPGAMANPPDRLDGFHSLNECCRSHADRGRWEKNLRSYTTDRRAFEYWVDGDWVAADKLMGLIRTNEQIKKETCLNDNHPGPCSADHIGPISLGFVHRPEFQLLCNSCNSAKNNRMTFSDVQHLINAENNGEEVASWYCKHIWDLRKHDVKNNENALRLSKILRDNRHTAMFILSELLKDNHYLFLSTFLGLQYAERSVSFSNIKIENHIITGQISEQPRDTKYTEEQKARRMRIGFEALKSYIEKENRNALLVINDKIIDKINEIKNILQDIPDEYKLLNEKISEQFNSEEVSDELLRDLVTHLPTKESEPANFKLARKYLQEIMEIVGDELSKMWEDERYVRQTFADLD

[3] = tested on: T3, BsaI restriction endonuclease (recombinant, cell extract) L1M (Bacillus stearothermophilus 6-55); test: enzyme reaction in vitro; settings: T7 DNA substrate; BsmAI-methylase premodified host; 0.7-1.4 x 10^6 with BsaIMA&B host; protein in an extract
T3 sequence: T2 sequence

M.BsmAI (M1-M2 fusion) = molecular target: T4, M.BsmAI (M1-M2 fusion) (UniProt Q6UQ63); test: activity in cells; settings: four of six clones resistant to BsmAI digestion; site overlaps BsaI site and cross-protects host; protein in cells; protein details: expressed from pBR322 in E. coli ER2566; only the motif is given
T4 sequence (looked up, limits assumed): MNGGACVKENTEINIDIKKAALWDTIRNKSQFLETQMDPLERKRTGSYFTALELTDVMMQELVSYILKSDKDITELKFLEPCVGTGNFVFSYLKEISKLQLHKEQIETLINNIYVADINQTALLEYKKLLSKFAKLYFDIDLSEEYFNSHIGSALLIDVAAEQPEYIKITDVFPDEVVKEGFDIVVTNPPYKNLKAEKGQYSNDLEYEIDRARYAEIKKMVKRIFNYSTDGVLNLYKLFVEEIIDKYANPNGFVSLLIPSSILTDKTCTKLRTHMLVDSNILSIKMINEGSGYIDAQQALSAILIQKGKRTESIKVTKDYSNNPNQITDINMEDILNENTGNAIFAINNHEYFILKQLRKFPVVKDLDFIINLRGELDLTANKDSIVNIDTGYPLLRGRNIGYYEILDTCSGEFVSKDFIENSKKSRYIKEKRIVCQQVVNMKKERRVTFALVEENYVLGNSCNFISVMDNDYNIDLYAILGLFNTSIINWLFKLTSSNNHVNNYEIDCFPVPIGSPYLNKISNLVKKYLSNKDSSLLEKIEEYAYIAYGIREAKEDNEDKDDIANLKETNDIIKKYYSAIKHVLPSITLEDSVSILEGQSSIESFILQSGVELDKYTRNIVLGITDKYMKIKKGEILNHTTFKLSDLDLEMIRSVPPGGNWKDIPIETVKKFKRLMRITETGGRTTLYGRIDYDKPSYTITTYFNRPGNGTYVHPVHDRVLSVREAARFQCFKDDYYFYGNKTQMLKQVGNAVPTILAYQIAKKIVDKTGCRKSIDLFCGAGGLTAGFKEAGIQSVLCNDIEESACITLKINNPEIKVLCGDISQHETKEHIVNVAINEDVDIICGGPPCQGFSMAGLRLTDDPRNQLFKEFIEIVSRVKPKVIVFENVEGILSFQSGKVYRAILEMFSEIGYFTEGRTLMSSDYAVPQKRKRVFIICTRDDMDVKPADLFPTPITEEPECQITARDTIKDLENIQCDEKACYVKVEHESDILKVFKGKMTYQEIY

Sequence | activity on this sequence [1] | activity on this sequence [2] | activity on this sequence [3] | activity on this sequence (M.BsmAI (M1-M2 fusion))
GGTCTC (double strand) [BsaI recognition site (in T7 or lambda DNA)] | active | active | active | –
GTCTC (double strand) [BsmAI recognition site (in plasmid DNA)] | – | – | – | active

Where a protein sequence is shown, tags need not be part of it. For some of these results: For at least one entry, the source does not settle the construct or the ends of the probe.
